In one experiment the test system is T1, CcOctβ3R.
T1 construct: gene Octβ3R
The following applies: read-out: CcOctβ3R / IC50; antagonist; non-saturating OA (300 nM); 100 μM IBMX; 25 °C. An excerpt:
inhibition of OA-induced cAMP in stable CHO-K1 cells (cAMP immunoassay) on CcOctβ3R

A further experiment deals with T2, CcOctβ1R.
T2 construct: gene Octβ1R
The following applies: read-out: CcOctβ1R / IC50; antagonist; non-saturating OA (100 nM); 100 μM IBMX; 25 °C. An excerpt: inhibition of OA-induced cAMP in stable CHO-K1 cells (cAMP immunoassay) on CcOctβ1R

The next experiment deals with T3, CcOctβ2R.
T3 construct: gene Octβ2R
As to conditions: read-out: CcOctβ2R / IC50; antagonist; non-saturating OA (30 nM); 100 μM IBMX; 25 °C. An excerpt:
inhibition of OA-induced cAMP in stable CHO-K1 cells (cAMP immunoassay) on CcOctβ2R

In the case of `CN1CC2c3ccccc3Oc3ccc(Cl)cc3C2C1` (stereo not drawn) [Asenapine], the values for the IC50 in the experiment on CcOctβ3R, in the experiment on CcOctβ1R and with CcOctβ2R were 11.3 nM, 170 nM and 23.4 nM, respectively.

The values are drawn from PMC9740559, “Molecular and Pharmacological Characterization of β-Adrenergic-like Octopamine Receptors in the Endoparasitoid Cotesia chilonis (Hymenoptera: Braconidae)” (International Journal of Molecular Sciences, 2022).
